The values that follow come from doi:10.1101/822270.

These are yes or no findings as the source states them, for the method shown. Binding seen in cells or lysates may run through a third protein. Some results given as binding are weak or reduced against the parent protein; the word gives no strength. Sequences can lack the tags named with a protein.

Assay in all cases: pull-down
Experiment [1] concerns the target T1, TMTC1 S-tag (UniProt Q8IUR5).
T1 sequence: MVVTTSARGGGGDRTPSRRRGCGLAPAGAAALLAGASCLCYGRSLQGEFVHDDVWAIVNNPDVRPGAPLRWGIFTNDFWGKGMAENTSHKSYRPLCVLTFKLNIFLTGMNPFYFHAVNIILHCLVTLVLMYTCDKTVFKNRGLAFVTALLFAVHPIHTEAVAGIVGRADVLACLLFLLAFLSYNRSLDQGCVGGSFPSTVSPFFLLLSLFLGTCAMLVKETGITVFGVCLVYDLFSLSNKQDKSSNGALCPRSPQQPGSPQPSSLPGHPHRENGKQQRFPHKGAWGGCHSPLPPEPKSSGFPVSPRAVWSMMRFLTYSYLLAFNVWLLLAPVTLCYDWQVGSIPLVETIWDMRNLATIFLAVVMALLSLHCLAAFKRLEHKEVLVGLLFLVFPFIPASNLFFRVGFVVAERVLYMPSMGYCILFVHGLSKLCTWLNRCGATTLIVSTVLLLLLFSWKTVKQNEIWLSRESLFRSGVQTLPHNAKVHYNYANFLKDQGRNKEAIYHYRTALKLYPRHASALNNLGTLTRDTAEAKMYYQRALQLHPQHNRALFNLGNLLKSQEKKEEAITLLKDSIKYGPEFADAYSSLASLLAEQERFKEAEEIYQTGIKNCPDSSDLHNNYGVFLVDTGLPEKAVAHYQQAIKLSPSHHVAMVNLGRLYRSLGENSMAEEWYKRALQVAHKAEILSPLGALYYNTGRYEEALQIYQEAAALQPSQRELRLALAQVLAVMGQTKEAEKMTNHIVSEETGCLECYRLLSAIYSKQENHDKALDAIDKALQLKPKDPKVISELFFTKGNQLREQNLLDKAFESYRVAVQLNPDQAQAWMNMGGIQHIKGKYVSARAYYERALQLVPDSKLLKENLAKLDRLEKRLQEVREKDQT

The target in experiment [2] is T2, TMTC2 S-tag (UniProt Q8N394).
T2 sequence: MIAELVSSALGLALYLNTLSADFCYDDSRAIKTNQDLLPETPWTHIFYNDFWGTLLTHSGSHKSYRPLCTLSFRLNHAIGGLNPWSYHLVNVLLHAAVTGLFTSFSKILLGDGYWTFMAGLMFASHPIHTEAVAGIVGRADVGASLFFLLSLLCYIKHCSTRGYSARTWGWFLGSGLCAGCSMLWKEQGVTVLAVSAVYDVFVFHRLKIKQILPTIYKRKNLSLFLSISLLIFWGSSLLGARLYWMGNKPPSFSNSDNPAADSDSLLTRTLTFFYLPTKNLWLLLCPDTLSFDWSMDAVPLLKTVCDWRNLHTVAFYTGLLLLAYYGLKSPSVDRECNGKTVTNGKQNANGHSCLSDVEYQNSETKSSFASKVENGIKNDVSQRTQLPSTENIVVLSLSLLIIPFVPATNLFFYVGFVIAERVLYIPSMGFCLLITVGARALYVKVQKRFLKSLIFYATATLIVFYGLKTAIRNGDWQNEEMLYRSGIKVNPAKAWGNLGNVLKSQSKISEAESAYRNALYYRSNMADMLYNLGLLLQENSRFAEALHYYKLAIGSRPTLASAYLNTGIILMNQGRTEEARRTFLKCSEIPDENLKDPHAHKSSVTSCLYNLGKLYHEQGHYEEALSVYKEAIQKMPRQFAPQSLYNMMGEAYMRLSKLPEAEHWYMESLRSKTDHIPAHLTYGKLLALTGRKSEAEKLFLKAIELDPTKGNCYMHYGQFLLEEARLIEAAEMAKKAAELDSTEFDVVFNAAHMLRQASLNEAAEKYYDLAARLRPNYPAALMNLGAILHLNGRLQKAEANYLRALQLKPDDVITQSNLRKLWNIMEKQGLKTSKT

The target of experiment [3] is T3, TMTC3 S-tag (human) (UniProt Q6ZXV5).
T3 sequence: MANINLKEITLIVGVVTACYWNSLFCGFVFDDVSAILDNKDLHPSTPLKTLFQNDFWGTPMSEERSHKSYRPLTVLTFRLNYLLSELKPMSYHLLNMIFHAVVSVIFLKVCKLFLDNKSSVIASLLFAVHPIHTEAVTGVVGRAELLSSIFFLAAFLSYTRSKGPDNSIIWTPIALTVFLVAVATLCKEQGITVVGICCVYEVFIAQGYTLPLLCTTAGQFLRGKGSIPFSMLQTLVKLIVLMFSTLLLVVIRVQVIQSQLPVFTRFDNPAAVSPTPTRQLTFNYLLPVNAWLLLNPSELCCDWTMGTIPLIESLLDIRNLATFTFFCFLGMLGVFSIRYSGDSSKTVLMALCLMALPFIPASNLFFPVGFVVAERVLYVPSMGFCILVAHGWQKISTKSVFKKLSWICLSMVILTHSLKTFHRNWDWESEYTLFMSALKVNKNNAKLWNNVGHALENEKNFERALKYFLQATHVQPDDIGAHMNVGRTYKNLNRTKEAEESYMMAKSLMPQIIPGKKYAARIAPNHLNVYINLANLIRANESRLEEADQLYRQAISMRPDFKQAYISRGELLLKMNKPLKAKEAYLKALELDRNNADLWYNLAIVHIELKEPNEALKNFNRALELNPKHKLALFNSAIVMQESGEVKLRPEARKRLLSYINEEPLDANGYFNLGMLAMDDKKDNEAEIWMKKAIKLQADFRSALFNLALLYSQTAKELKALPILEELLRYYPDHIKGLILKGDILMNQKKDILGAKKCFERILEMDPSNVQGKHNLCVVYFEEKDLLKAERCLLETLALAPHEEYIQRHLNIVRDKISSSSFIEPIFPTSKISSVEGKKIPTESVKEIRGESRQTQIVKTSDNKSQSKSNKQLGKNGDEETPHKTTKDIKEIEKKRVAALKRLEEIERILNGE

For experiment [4], the target named is T4, TMTC4 S-tag (human) (UniProt Q5T4D3).
T4 sequence: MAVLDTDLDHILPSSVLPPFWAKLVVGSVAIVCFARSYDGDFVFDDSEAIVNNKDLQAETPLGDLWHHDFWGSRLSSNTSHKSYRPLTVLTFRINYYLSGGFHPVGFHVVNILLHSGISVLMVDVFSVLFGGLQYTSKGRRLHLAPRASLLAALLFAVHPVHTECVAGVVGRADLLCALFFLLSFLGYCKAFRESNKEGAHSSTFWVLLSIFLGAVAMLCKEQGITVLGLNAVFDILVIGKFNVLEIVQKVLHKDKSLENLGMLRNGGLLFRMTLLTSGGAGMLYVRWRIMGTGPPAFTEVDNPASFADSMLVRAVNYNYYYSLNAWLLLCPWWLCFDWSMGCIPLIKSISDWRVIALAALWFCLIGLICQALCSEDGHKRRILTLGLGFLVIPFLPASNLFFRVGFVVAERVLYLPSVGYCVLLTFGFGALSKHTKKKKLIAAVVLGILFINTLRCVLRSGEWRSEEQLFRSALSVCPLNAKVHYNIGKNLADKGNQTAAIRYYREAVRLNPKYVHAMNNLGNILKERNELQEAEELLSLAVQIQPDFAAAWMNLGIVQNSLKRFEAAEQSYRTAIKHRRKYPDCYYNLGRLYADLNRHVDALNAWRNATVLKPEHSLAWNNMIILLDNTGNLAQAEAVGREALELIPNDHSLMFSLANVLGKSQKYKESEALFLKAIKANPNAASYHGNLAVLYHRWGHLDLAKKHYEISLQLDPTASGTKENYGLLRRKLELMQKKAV

For SERCA2B (from UniProt P16615-1 1-1042), the binding entry is “binds” in experiment [1], “binds” in experiment [2], “no binding” in experiment [3] and “binds” in experiment [4].
